Test results published in publication PMC8929021.

T1: BUD13 fused to BirA* (UniProt Q9BRD0)
T1 sequence: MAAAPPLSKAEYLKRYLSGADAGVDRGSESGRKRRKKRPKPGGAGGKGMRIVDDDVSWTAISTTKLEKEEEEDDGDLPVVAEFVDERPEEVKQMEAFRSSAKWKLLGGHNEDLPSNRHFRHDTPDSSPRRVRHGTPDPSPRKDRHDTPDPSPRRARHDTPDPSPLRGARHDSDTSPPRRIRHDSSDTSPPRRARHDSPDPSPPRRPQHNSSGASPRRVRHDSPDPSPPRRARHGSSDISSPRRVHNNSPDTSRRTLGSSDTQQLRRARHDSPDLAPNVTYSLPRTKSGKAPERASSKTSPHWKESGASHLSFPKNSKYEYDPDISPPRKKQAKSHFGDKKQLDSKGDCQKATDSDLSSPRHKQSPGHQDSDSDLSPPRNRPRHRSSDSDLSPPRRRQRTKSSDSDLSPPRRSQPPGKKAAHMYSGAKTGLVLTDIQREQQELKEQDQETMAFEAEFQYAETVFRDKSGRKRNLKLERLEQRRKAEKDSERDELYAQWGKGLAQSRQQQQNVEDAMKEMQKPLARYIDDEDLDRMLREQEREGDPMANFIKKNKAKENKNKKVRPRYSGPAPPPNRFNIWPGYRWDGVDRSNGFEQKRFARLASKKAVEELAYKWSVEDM

T2: BUD13 fused to BirA*, Q9BRD0
T2 chain: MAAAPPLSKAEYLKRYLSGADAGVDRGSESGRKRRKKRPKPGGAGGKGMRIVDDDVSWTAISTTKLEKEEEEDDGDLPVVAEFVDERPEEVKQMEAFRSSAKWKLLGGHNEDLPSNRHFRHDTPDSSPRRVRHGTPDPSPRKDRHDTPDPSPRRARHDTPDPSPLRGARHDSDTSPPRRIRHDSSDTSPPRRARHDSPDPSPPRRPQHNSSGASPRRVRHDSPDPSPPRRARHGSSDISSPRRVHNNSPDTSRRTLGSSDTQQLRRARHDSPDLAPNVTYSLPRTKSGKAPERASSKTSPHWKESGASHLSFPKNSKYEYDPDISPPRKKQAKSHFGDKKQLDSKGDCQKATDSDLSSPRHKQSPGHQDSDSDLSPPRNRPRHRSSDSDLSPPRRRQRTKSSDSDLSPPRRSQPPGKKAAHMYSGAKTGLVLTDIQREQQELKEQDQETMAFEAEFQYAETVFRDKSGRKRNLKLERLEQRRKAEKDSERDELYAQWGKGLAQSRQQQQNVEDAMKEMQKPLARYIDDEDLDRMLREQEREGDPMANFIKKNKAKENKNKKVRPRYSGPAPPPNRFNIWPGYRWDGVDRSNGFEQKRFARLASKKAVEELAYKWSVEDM


How the values were obtained:
BUD13 fused to BirA* = molecular target: T1, BUD13 fused to BirA*; assay: proximity labelling; BioID-MS: BirA* fusion bait in stable Flp-In T-Rex 293 or HeLa cells, tetracycline 1 μg/mL and biotin 75 μM for 24 h; lysis in modified RIPA buffer, streptavidin-agarose beads 4 °C 3 h, on-bead trypsin digestion, LC-MS/MS; GFP-NLS as control, SAINTexpress FDR threshold 0.1; for KIN also in HeLa cells synchronised by double thymidine block (S, G2/M, G1) and 2 or 24 h after 10 Gy gamma irradiation
[1] = molecular target: T2, BUD13 fused to BirA*, Q9BRD0; assay: as above; details: remark: other sources report otherwise

Binder	binding (BUD13 fused to BirA*)	binding [1]
CWC22 (protein, UniProt Q9HCG8 1-908) MKSSVAQIKPSSGHDRRENLNSYQRNSSPEDRYEEQERSPRDRDYFDYSRSDYEHSRRGRSYDSSMESRNRDREKRRERERDTDRKRSRKSPSPGRRNPETSVTQSSSAQDEPATKKKKDELDPLLTRTGGAYIPPAKLRMMQEQITDKNSLAYQRMSWEALKKSINGLINKVNISNISIIIQELLQENIVRGRGLLSRSVLQAQSASPIFTHVYAALVAIINSKFPQIGELILKRLILNFRKGYRRNDKQLCLTASKFVAHLINQNVAHEVLCLEMLTLLLERPTDDSVEVAIGFLKECGLKLTQVSPRGINAIFERLRNILHESEIDKRVQYMIEVMFAVRKDGFKDHPIILEGLDLVEEDDQFTHMLPLEDDYNPEDVLNVFKMDPNFMENEEKYKAIKKEILDEGDTDSNTDQDAGSSEEDEEEEEEEGEEDEEGQKVTIHDKTEINLVSFRRTIYLAIQSSLDFEECAHKLLKMEFPESQTKELCNMILDCCAQQRTYEKFFGLLAGRFCMLKKEYMESFEGIFKEQYDTIHRLETNKLRNVAKMFAHLLYTDSLPWSVLECIKLSEETTTSSSRIFVKIFFQELCEYMGLPKLNARLKDETLQPFFEGLLPRDNPRNTRFAINFFTSIGLGGLTDELREHLKNTPKVIVAQKPDVEQNKSSPSSSSSASSSSESDSSDSDSDSSDSSSESSSEESDSSSISSHSSASANDVRKKGHGKTRSKEVDKLIRNQQTNDRKQKERRQEHGHQETRTERERRSEKHRDQNSSGSNWRDPITKYTSDKDVPSERNNYSRVANDRDQEMHIDLENKHGDPKKKRGERRNSFSENEKHTHRIKDSENFRRKDRSKSKEMNRKHSGSRSDEDRYQNGAERRWEKSSRYSEQSRESKKNQDRRREKSPAKQK	binds	
GPKOW (protein, UniProt Q92917 1-476) MADSKEGVLPLTAASTAPISFGFTRTSARRRLADSGDGAGPSPEEKDFLKTVEGRELQSVKPQEAPKELVIPLIQNGHRRQPPARPPGPSTDTGALADGVVSQAVKELIAESKKSLEERENAGVDPTLAIPMIQKGCTPSGEGADSEPRAETVPEEANYEAVPVEAYGLAMLRGMGWKPGEGIGRTFNQVVKPRVNSLRPKGLGLGANLTEAQALTPTGPSRMPRPDEEQEKDKEDQPQGLVPGGAVVVLSGPHRGLYGKVEGLDPDNVRAMVRLAVGSRVVTVSEYYLRPVSQQEFDKNTLDLRQQNGTASSRKTLWNQELYIQQDNSERKRKHLPDRQDGPAAKSEKAAPRSQHWLHRDLRVRFVDNMYKGGQYYNTKMIIEDVLSPDTCVCRTDEGRVLEGLREDMLETLVPKAEGDRVMVVLGPQTGRVGHLLSRDRARSRALVQLPRENQVVELHYDAICQYMGPSDTDDD	binds	
DHX16 (protein, UniProt O60231 1-1041) MATPAGLERWVQDELHSVLGLSERHVAQFLIGTAQRCTSAEEFVQRLRDTDTLDLSGPARDFALRLWNKVPRKAVVEKPARAAEREARALLEKNRSYRLLEDSEESSEETVSRAGSSLQKKRKKRKHLRKKREEEEEEEASEKGKKKTGGSKQQTEKPESEDEWERTERERLQDLEERDAFAERVRQRDKDRTRNVLERSDKKAYEEAQKRLKMAEEDRKAMVPELRKKSRREYLAKREREKLEDLEAELADEEFLFGDVELSRHERQELKYKRRVRDLAREYRAAGEQEKLEATNRYHMPKETRGQPARAVDLVEEESGAPGEEQRRWEEARLGAASLKFGARDAASQEPKYQLVLEEEETIEFVRATQLQGDEEPSAPPTSTQAQQKESIQAVRRSLPVFPFREELLAAIANHQVLIIEGETGSGKTTQIPQYLFEEGYTNKGMKIACTQPRRVAAMSVAARVAREMGVKLGNEVGYSIRFEDCTSERTVLRYMTDGMLLREFLSEPDLASYSVVMVDEAHERTLHTDILFGLIKDVARFRPELKVLVASATMDTARFSTFFDDAPVFRIPGRRFPVDIFYTKAPEADYLEACVVSVLQIHVTQPPGDILVFLTGQEEIEAACEMLQDRCRRLGSKIRELLVLPIYANLPSDMQARIFQPTPPGARKVVVATNIAETSLTIEGIIYVLDPGFCKQKSYNPRTGMESLTVTPCSKASANQRAGRAGRVAAGKCFRLYTAWAYQHELEETTVPEIQRTSLGNVVLLLKSLGIHDLMHFDFLDPPPYETLLLALEQLYALGALNHLGELTTSGRKMAELPVDPMLSKMILASEKYSCSEEILTVAAMLSVNNSIFYRPKDKVVHADNARVNFFLPGGDHLVLLNVYTQWAESGYSSQWCYENFVQFRSMRRARDVREQLEGLLERVEVGLSSCQGDYIRVRKAITAGYFYHTARLTRSGYRTVKQQQTVFIHPNSSLFEQQPRWLLYHELVLTTKEFMRQVLEIESSWLLEVAPHYYKAKELEDPHAKKMPKKIGKTREELG	binds	
WDR3 (protein, UniProt Q9UNX4 1-943) MGLTKQYLRYVASAVFGVIGSQKGNIVFVTLRGEKGRYVAVPACEHVFIWDLRKGEKILILQGLKQEVTCLCPSPDGLHLAVGYEDGSIRIFSLLSGEGNVTFNGHKAAITTLKYDQLGGRLASGSKDTDIIVWDVINESGLYRLKGHKDAITQALFLREKNLLVTSGKDTMVKWWDLDTQHCFKTMVGHRTEVWGLVLLSEEKRLITGASDSELRVWDIAYLQEIEDPEEPDPKKIKGSSPGIQDTLEAEDGAFETDEAPEDRILSCRKAGSIMREGRDRVVNLAVDKTGRILACHGTDSVLELFCILSKKEIQKKMDKKMKKARKKAKLHSSKGEEEDPEVNVEMSLQDEIQRVTNIKTSAKIKSFDLIHSPHGELKAVFLLQNNLVELYSLNPSLPTPQPVRTSRITIGGHRSDVRTLSFSSDNIAVLSAAADSIKIWNRSTLQCIRTMTCEYALCSFFVPGDRQVVIGTKTGKLQLYDLASGNLLETIDAHDGALWSMSLSPDQRGFVTGGADKSVKFWDFELVKDENSTQKRLSVKQTRTLQLDEDVLCVSYSPNQKLLAVSLLDCTVKIFYVDTLKFFLSLYGHKLPVICMDISHDGALIATGSADRNVKIWGLDFGDCHKSLFAHDDSVMYLQFVPKSHLFFTAGKDHKIKQWDADKFEHIQTLEGHHQEIWCLAVSPSGDYVVSSSHDKSLRLWERTREPLILEEEREMEREAEYEESVAKEDQPAVPGETQGDSYFTGKKTIETVKAAERIMEAIELYREETAKMKEHKAICKAAGKEVPLPSNPILMAYGSISPSAYVLEIFKGIKSSELEESLLVLPFSYVPDILKLFNEFIQLGSDVELICRCLFFLLRIHFGQITSNQMLVPVIEKLRETTISKVSQVRDVIGFNMAGLDYLKRECEAKSEVMFFADATSHLEEKKRKRKKREKLILTLT	binds	
SNIP1/Pml1, Q8TAD8 1-396 (protein) MKAVKSERERGSRRRHRDGDVVLPAGVVVKQERLSPEVAPPAHRRPDHSGGSPSPPTSEPARSGHRGNRARGVSRSPPKKKNKASGRRSKSPRSKRNRSPHHSTVKVKQEREDHPRRGREDRQHREPSEQEHRRARNSDRDRHRGHSHQRRTSNERPGSGQGQGRDRDTQNLQAQEEEREFYNARRREHRQRNDVGGGGSESQELVPRPGGNNKEKEVPAKEKPSFELSGALLEDTNTFRGVVIKYSEPPEARIPKKRWRLYPFKNDEVLPVMYIHRQSAYLLGRHRRIADIPIDHPSCSKQHAVFQYRLVEYTRADGTVGRRVKPYIIDLGSGNGTFLNNKRIEPQRYYELKEKDVLKFGFSSREYVLLHESSDTSEIDRKDDEDEEEEEEVSDS		no binding

These are yes or no findings as the source states them, for the method shown. Binding seen in cells or lysates may run through a third protein. Here binding means that the protein was enriched with, or labelled near, the bait; the list need not be complete. For some assays here: A no says only that the protein was not detected with the bait. Where a sequence is shown, tags or fusion partners need not be part of it.
